Data reported in PubChem BioAssay AID1347423 (Functional Genomics Laboratory (NCATS/FGL), 2020).
Hit rate of the full screen: of about 52,000 sequences, about 210 (0.4%) were called active.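 How the source made its calls: active means gene whose silencing raises cell survival under the drug, median off-target-corrected z-score across its silencing RNAs 2 or more; inactive means the rest.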 This is one part of the list.

Experiment: Resistance to Poly (ADP-Ribose) Polymerase inhibitor: Gene Identification via Genome-wide siRNA Screen
Conditions: mouse BRCA2 R2336H ES cells, olaparib, CellTiter-Glo viability; hits give high values
Outline: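 Mouse BRCA2 R2336H ES cells were reverse-transfected with siRNA (20 nM final), treated at 48 h with 500 nM olaparib, and read by CellTiter-Glo after 72 h. Scores: MAD-based z per siRNA, median per gene, seed off-target correction.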

| Sequence | z-score |
| --- | --- |
| GCCUUGUACCCUGUAGUGATT against Lalba | inactive: 0.475 |
| GGACGACGACUUUGAGAGGTT against Map2k2 | inactive: -0.963 |
| GGAGAAAAAAAACUCCAUUTT against 1110008L20Rik | inactive: 0.502 |
| CCCGCUCCUGUUUAGAUGUTT against D16Bwg1547e | inactive: -0.317 |
| GCAAGUCACUUUGGUACCATT against Anxa1 | inactive: -0.153 |
| GGUGAAAAACUAGCUUAAATT against Zfp263 | inactive: 1.09 |
| ACCCUUUUGUUUACACUCUTT against Olfr763 | inactive: -0.649 |
| GAGAUCAGCUUCAAUGCUUTT against Olfr564 | inactive: 0.892 |
| CCACACACUGAUCAACGUGTT against Unc93b | inactive: -1.31 |
| GGAGGAGUGGAUGUGAUUATT against Dao1 | inactive: 1.26 |
| GGCUAAAACAAGUGAAUGGTT against Gli3 | inactive: 1.06 |
| GGAUCUCUGGGUCUGAAAATT against AU022870 | inactive: 0.918 |
| GGAGCAGGAACAGUAUUUCTT against B3gnt6 | inactive: 0.717 |
| GGCAAUAAAUGCUGAGUUATT against Fbxo15 | inactive: 1.11 |
| CCUCCUAUUUGGACAUUGCTT against 6330505F04Rik | inactive: -0.816 |
| CCACUAAGUCCCAUGCUAGTT against Glycam1 | inactive: -1.22 |
| GGCAGGCUAACGAAGAAUATT against Tusc3 | inactive: -1.58 |
| GGUUAUAGAUGUAAAGUCUTT against C80587 | inactive: -0.388 |
| GGAGCUGUAUCGCACGAAATT against Ehd2 | inactive: 0.217 |
| GGGUGAUGGACAUAAAUGATT against Pcdhb17 | inactive: -0.281 |
| GGUAUGCAGUGAAGAGGAUTT against Paqr9 | inactive: 0.0313 |
| GCUUCAUUUAGCUUUAACUTT against Tpp2 | inactive: -0.521 |
| CGUUCAUAUAGAGAACUGUTT against Birc1a | inactive: 1.42 |
| GGGCUUUUAAUAGAGGUAATT against Rras2 | inactive: -1.1 |
| GGAAGAGAAAACAACAGUUTT against Phactr4 | inactive: -1.83 |
| GCUACACAUGGGAACUAACTT against 4631405J19Rik | inactive: -0.51 |
| CCUUGUAUCCUUAAUCCUCTT against Ppt1 | inactive: 0.555 |
| GGUCUUUGUUAAGAAUCCUTT against Myo1f | inactive: 1.03 |
| UACAACCCGAAUGAAUCGUTT against Olfr129 | inactive: -1.5 |

For convenience, some entries already given.

| Sequence | z-score |
| --- | --- |
| CCACUAAGUCCCAUGCUAGTT against Glycam1 | inactive: -1.22 |
| GGCAGGCUAACGAAGAAUATT against Tusc3 | inactive: -1.58 |
